The test can be described thus: qHTS Assay to Find Inhibitors of Chronic Active B-Cell Receptor Signaling. Conditions: ABC-DLBCL IkBa-CBG/CBR reporter, luminescence ratio (green luciferase fused to IkBa over red control in TMD8 lymphoma cells), 4 h. The gist of the method:
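Concentration-response series (up to 46 uM) were applied to TMD8 dual-reporter cells for 4 h at 37C with doxycycline. Green/red ratio, after filter-overlap correction, defined %Activity; red signal alone was normalised to basal cells and zero luminescence.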

Setting [1] is: measured here: CBR red luminescence, cell number.
The mark [2] stands for this setting: measured here: IkBa-CBG green luminescence.

This is one part of the list. These are further read-outs of the screen, such as a control signal, another cell line or another target. No call is given for them. Most of these compounds were active or inconclusive in the main read-out, so they are no random draw. Words in brackets tell the shape of the fitted curve; partial curves, single points and poor fits give uncertain potencies.

With `CC(C)NC(=O)C(=O)NCCc1ccc(Cl)cc1`, the AC50 under setting [1] is 7.31 µM [rising, partial curve, poor fit].
Same read-out and setting: the value for `C=CCc1cccc2cc(C(=O)NCc3ccc(C(=O)OCC)o3)c(=O)oc12` was 29.1 µM [rising, single point]; that for `Cc1cccc(N(Cc2ccccc2)C(=O)c2cccc(S(=O)(=O)N3CC(C)OC(C)C3)c2)c1` (configuration not stated) was 2.91 µM [falling, partial curve]; that for `CCOC(=O)NC(=S)c1ccc[nH]1` was 16.4 µM [rising, partial curve].
In the case of `c1ccc(Nc2scc(-c3ccccc3)[n+]2Cc2ccco2)cc1`, under setting [1], the AC50 is 35.5 µM [falling, single point].
For the compound `O=C(CNc1cccc2ccccc12)N/N=C/c1ccc([N+](=O)[O-])o1`, the AC50 under setting [1] is 0.184 µM [rising, full curve].
Consider `Cc1n[nH]c(C)c1N1C(=O)c2cccc3c(N4CCCCCC4)ccc(c23)C1=O`, for which the AC50 under setting [1] was 25.1 µM [falling, single point].
Consider `Cc1nn(-c2ccccc2)c2nc(N)c(C#N)c(-c3ccc(O)c(O)c3)c12`, for which the AC50 under setting [1] was 3.16 µM [falling, full curve, poor fit].
Take `Cc1cc(Oc2ccc3ccccc3c2)nc(SCC(=O)c2ccccc2)n1`: the AC50 under setting [1] was 2.06 µM [rising, partial curve, poor fit].
With `Cc1cc2cc3c(cc2nc1SCC(=O)OC(C)C)OCCO3`, under setting [1], the AC50 was 20.6 µM [falling, single point].
Take `COC(=O)c1ccc(NC(=S)NN2CCCCC2c2cccnc2)cc1` (configuration not stated): the AC50 under setting [1] is 12.6 µM [rising, partial curve, poor fit].
Still for that read-out and setting: the value for `CCOc1ccc(C(=O)Nc2ccc(Cc3ccncc3)cc2)cc1Br` was 35.5 µM [falling, single point].
`Cc1cc(N2CCC(C)CC2)nc(SCC(=O)c2ccccc2)n1`: the AC50 under setting [1] was 6.51 µM [rising, single point].
For the compound `CC(=O)c1cccc(N2C(=NC(=O)CCc3ccccc3)SC3CS(=O)(=O)CC32)c1` (configuration not stated), the AC50 under setting [1] is 35.5 µM [rising, single point].
Same read-out and setting: the same measure for `COc1ccccc1-c1n[nH]c(=S)n1-c1ccccc1`: 12.6 µM [falling, partial curve, poor fit].
For `CNC(=S)N/N=C/c1cc(C)ccc1C`, the AC50 was 11.2 µM [rising, partial curve, poor fit] under setting [1] and 35.5 µM [falling, single point] under setting [2].
Consider `CCOP(=O)(OCC)/C(=N/OC(=O)c1ccccc1C)C(N)=O`, for which the AC50 under setting [1] is 13 µM [falling, partial curve, poor fit].
Still for that read-out and setting: the same measure for `Cc1ccc(/C=N/NC(=O)CSc2ccccn2)o1`: 0.112 µM [rising, full curve, poor fit]; for `CN(Cc1ccc(F)cc1)C(=O)COc1ccc2ccccc2c1`: 11.2 µM [falling, partial curve]; for `CNC(=S)NNC(=O)c1cccn(Cc2ccc(Cl)c(Cl)c2)c1=O`: 14.1 µM [rising, partial curve].
In the case of `CCN1C(=O)/C(=C\c2cccs2)C(C(=O)OC)=C1C`, under setting [1], the AC50 is 2.59 µM [falling, partial curve, poor fit].
Regarding `CSCCC1NC(=O)N(CC(=O)N2N=C(c3ccc(Cl)cc3)CC2c2ccco2)C1=O` (configuration not stated), the AC50 under setting [1] is 35.5 µM [rising, single point].
In the case of `Cc1cc(C)cc(-n2c(SC(C)C(=O)NCc3ccc4c(c3)OCO4)nc3ccccc3c2=O)c1` (configuration not stated), the AC50 runs as follows: under setting [1], 18.4 µM [falling, single point]; under setting [2], 20.6 µM [rising, partial curve, poor fit].
For `CC(=O)c1cc(C#N)c(Oc2cccc(C(F)(F)F)c2)nc1C`, the AC50 under setting [1] was 5.01 µM [rising, partial curve].
On the same count and under the same terms, the same measure for `CCC(C)C(NC(=O)c1ccccc1NC(=O)c1ccccc1)C(=O)O` (configuration not stated): 10 µM [falling, partial curve]; for `COc1ccccc1NC(=O)c1sc2nc(Cc3ccccc3)cc(C(F)(F)F)c2c1N`: 6.51 µM [rising, single point]; for `CC1=C(C(N)=O)C(c2cccc(C)c2)n2nc(-c3ccc(Cl)cc3)nc2N1` (configuration not stated): 25.1 µM [falling, single point].
Take `c1ccc(C2c3[nH]c4ccccc4c3CCN2Cc2cccn2-c2ccccn2)nc1` (configuration not stated): under setting [1], the AC50 was 31.6 µM [falling, single point].
`Cc1ccccc1OCC(=O)NNC(=O)c1ccc(-n2cncn2)c([N+](=O)[O-])c1`: the AC50 under setting [1] is 3.66 µM [rising, full curve, poor fit].
Take `CCOc1ccc(NC2=C(Cl)C(=O)N(Cc3ccccc3)C2=O)cc1`: the AC50 under setting [1] was 8.91 µM [falling, partial curve, poor fit].
On to `CCC(CC)C(=O)Nc1cccc(C(=O)c2ccccc2)c1`, for which the AC50 under setting [1] was 16.4 µM [rising, single point].
For the compound `COC(=O)c1cnn(-c2ccc(F)cc2F)c1/C=N/NC(N)=S`, the AC50 under setting [1] was 14.1 µM [falling, partial curve, poor fit].
As to `Cc1cccc(-n2c(-c3csc(C)c3)n[nH]c2=S)c1`, the AC50 under setting [1] was 1.3 µM [falling, full curve, poor fit].
Take `Cc1ccc(C(O)P(=O)(OCc2ccccc2)c2ccc(N(C)C)cc2)cc1` (configuration not stated): under setting [1], the AC50 is 5.62 µM [falling, full curve, poor fit].
With `COc1ccc(CCNC(=O)CN2CCN(c3ccccc3Cl)CC2)cc1`, the AC50 under setting [1] is 16.4 µM [falling, single point].
Take `O=C1NN(c2ccc(Cl)c(Cl)c2)C(=O)/C1=C/c1ccc(-c2ccccc2C(=O)O)o1`: the AC50 under setting [1] is 14.1 µM [falling, single point].
Regarding `Cc1sc(=NC(=O)c2ccco2)n(C)c1-c1ccc(F)cc1`, under setting [1], the AC50 is 6.31 µM [falling, single point].
On the same count and under the same terms, the value for `COc1cc(C(=O)Oc2ccccc2N)cc(OC)c1OC` was 16.4 µM [falling, partial curve]; that for `O=C(CS(=O)(=O)c1cn(Cc2ccc(F)cc2)c2ccccc12)N1CCOCC1` was 11.2 µM [rising, partial curve, poor fit]; that for `Cc1ccc(Oc2ccc(-c3nc(N)nc(N)n3)cc2)cc1` was 0.231 µM [rising, full curve, poor fit].
With `NNC(=O)c1cn2ccccc2n1`, the AC50 under setting [1] is 17.8 µM [falling, single point].
Still for that read-out and setting: the value for `O=C(N/N=C/c1ccncc1)c1nc2ccccc2c(=O)[nH]1` was 12.6 µM [falling, single point].
`c1ccc(-c2nc(-n3nc4ccccc4n3)nc3ccccc23)cc1`: the AC50 under setting [1] is 0.112 µM [rising, full curve, poor fit].
In the case of `CS(=O)(=O)N(Cc1ccc(C(=O)NN=C2CCCCCC2)cc1)c1ccccc1`, the AC50 under setting [1] is 18.4 µM [falling, partial curve].
The same measure, in the same setting: the same measure for `O=C(Nc1ccccc1Cl)C1CCCN(S(=O)(=O)c2ccc(F)cc2)C1` (configuration not stated): 6.51 µM [falling, single point].
`CN(C)c1ccc(CNc2ncc(Br)cc2Br)cc1`: the AC50 under setting [1] was 11.2 µM [rising, partial curve, poor fit].
In the case of `CCOC(=O)Cc1csc(NC(=O)CCS(=O)(=O)Cc2ccccc2)n1`, the AC50 is, setting by setting: under setting [1], 10.3 µM [falling, single point]; under setting [2], 3.66 µM [rising, partial curve, poor fit].
As to `CCOC(=O)c1ccc(NC(=O)c2nc(S(=O)(=O)Cc3ccccc3)ncc2Cl)cc1`, the AC50 under setting [1] was 10 µM [falling, partial curve].
For `[2H]C(CCOS(N)(=O)=O)c1ccc(C(C)(C)C)cc1` (configuration not stated), under setting [1], the concentration at half-maximal activity (AC50) was 4.47 µM [falling, partial curve].
Same read-out and setting: the same measure for `COc1cc(C(=O)N/N=C/c2cccc(Oc3ccccc3)c2)ccc1O`: 10 µM [falling, partial curve].
Still for that read-out and setting: the same measure for `O=c1c2c(nc3c(-c4cccc5ccccc45)c[nH]n13)CCC2`: 2.31 µM [falling, full curve, poor fit]; for `Cc1ccc(C(=O)NN2C(=O)C3C(C2=O)C2C=CC3C23CC3)cc1` (configuration not stated): 15.8 µM [falling, partial curve, poor fit]; for `COc1ccc(N(CC(=O)N2c3ccccc3CC2C)S(=O)(=O)c2c(C)noc2C)cc1` (configuration not stated): 3.66 µM [falling, partial curve, poor fit].
Regarding `O=C(NCC(=O)N1CCN(c2ncccn2)CC1)c1ccccc1OC(F)F`, the AC50 under setting [1] was 23.1 µM [falling, single point].
As for `CCc1nnc(NC(=O)Nc2ccc(Cl)cc2)s1`, the AC50 under setting [1] is 2.82 µM [rising, full curve].
`O=[N+]([O-])c1ccc(-c2nc(NCc3cccnc3)c3ccccc3n2)cc1`: the AC50 under setting [1] is 17.8 µM [rising, single point].
Turning to `COc1cc2c(cc1NC(=O)CN1C(=O)NC3(CCc4ccccc43)C1=O)oc1ccccc12` (configuration not stated), under setting [1], the AC50 was 7.08 µM [falling, partial curve].
For `O=C(Nc1cccc(C(=O)O)c1)/C(=C\c1ccco1)NC(=O)c1ccc(Br)o1`, the half-maximal activity concentration (AC50) under setting [1] is 20 µM [falling, single point].
As for `COc1ccc(NC(=O)CNS(=O)(=O)c2ccc(Cl)cc2)cc1`, the AC50 under setting [1] was 18.4 µM [rising, single point].
Regarding `O=C1NC(=S)S/C1=C\c1cc2ccccc2nc1N1CCCCC1`, the AC50 under setting [1] is 14.1 µM [rising, single point].
Turning to `O=C(Nc1cc(N2CCOCC2)ncn1)c1ccccc1`, the AC50 under setting [1] was 11.2 µM [falling, partial curve, poor fit].
On to `COc1ccc(C2NC(=O)c3ccccc3N2)cc1` (configuration not stated), for which, under setting [1], the AC50 is 3.98 µM [rising, single point].
Still for that read-out and setting: the value for `COc1ccc(CCNC(=O)CSc2nnc(-c3ccc(C)cc3)c(-c3ccc(C)cc3)n2)cc1OC` was 20 µM [rising, partial curve, poor fit].
`CCS(=O)(=O)c1ccc(O)c(NC(=O)/C=C/c2ccccc2)c1`: the AC50 under setting [1] is 35.5 µM [falling, single point].

As a reminder, the AC50 is the concentration at which the activity in the assay is half-maximal.

For the origin of these results see PubChem BioAssay AID493014 (National Center for Advancing Translational Sciences (NCATS), 2011).
